# Library screen at single concentrations

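Phenotypic screen: M. tuberculosis growth, cholesterol and DPPC medium, 4 days; the read-out is not stated. Compounds at 500 µM. Direction is inferred from retests: higher values go with more growth inhibition. Size under these conditions: about 18,000 compounds, about 900 of them at 50% or above in at least one test.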

Results are given as percent effect.
How 0% and 100% were set is not recorded. Most values in the screen are low, and negative values occur.
The compounds are a random part of those screened.

* COc1ccc(NC(=O)[C@H]2CC2(C)C)cc1CO : 12.75%
* Cc1cc(C(=O)NCCNc2ncccn2)on1 : -1.647%
* Cn1cc(NC(=O)CC(C)(C)C)ccc1=O : -36.13%
* O=C(NCC1(O)CCCNC1)c1ccc(F)c(O)c1 (configuration not stated) : 2.782%
* Cc1cccc(Cn2c(CN)n[nH]c2=O)c1 : 10.46%
* COc1cc(C#N)ccc1CN[C@H](CO)C(C)C : -2.214%
* CCOCCn1cnn(C(C)(C)C)c1=O : 8.308%
* CCCNc1cc(-n2cccn2)ncn1 : 67.07%
* CN1CCNC(=O)C1CC(=O)N1CCCCCCC1 (configuration not stated) : -4.832%
* Cn1cc(C(=O)N2CCc3ccc(Br)cc32)ccc1=O : 1.214%
* CNC(=O)NC(=O)CSc1ccccc1F : 35.97%
* CC(CN)S(C)(=O)=O (configuration not stated) : -0.4253%
* CNC(=O)c1csc(Br)c1 : 4.204%
* COC1(CNC(=O)c2cc(Cl)ccn2)CCC1 : 42.14%
* O=C(NC1CCOCC1)c1ccc(Cl)nn1 : -9.383%
* Cc1cccc(CN2CCC3(CC2)[C@H](O)C[C@@H]3O)c1 : -15.76%
* CCN(CC)CC(=O)N1CCN(C(C)C#N)CC1 (configuration not stated) : -9.398%
* Cc1occc1C(=O)NCCCNCc1cccnc1 : -6.199%
* Cc1ccc(C(C)N(C)C(=O)c2cccnc2O)s1 (configuration not stated) : -18.93%
* CC(C)(CNC1CCN(c2ccccn2)C1)S(C)(=O)=O (configuration not stated) : -0.8371%
* O=c1c2ccccc2nnn1CN1CCCSCC1 : 1.867%
* NCC(O)CS(=O)(=O)c1cccs1 (configuration not stated) : 10.8%
* CCNc1ncc(C(=O)N2CCSCC2)cn1 : 5.852%
* O=C(CNC(=O)NCC1CC1)NCCc1ccccc1 : -20.84%
* CN1C(=O)Cc2cc(Cl)ccc2C1=O : -19.31%
* CC(=O)c1ccc(OCCN(C)C)cc1 : 2.37%
* CCOc1cccc(CNCCO)c1 : -5.954%
* COCC(=O)N[C@H](C(=O)NCc1ccoc1C)C(C)C : 39.96%
* CC[C@H](O)CN(CCNC(C)=O)C(C)C : -6.282%
* Oc1cccc(CNc2cccnc2-n2cccn2)c1 : 82.59%

Repeated from the top, 4 entries:

{"smiles": "COc1ccc(NC(=O)[C@H]2CC2(C)C)cc1CO", "Percent Effect": 12.75}
{"smiles": "Cc1cc(C(=O)NCCNc2ncccn2)on1", "Percent Effect": -1.647}
{"smiles": "Cn1cc(NC(=O)CC(C)(C)C)ccc1=O", "Percent Effect": -36.13}
{"smiles": "O=C(NCC1(O)CCCNC1)c1ccc(F)c(O)c1", "stereo": "configuration not stated", "Percent Effect": 2.782}

Data taken from ChEMBL document CHEMBL3988442, “University of Dundee, Small-Polar-MMV Screening Library” (2021).